These results are taken from PubChem BioAssay AID493014 (National Center for Advancing Translational Sciences (NCATS), 2011).

The other results are listed elsewhere or left out. The main result of the screen is listed elsewhere. These columns were measured beside it and carry no call. Compounds called inactive in the main read-out are mostly missing here. Words in brackets tell the shape of the fitted curve; partial curves, single points and poor fits give uncertain potencies.

As a reminder, the AC50 is the concentration at which the activity in the assay is half-maximal.

The nature of the test: qHTS Assay to Find Inhibitors of Chronic Active B-Cell Receptor Signaling. Conditions: ABC-DLBCL IkBa-CBG/CBR reporter, luminescence ratio (green luciferase fused to IkBa over red control in TMD8 lymphoma cells), 4 h. The gist of the method:
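TMD8 human ABC-DLBCL cells with doxycycline-inducible IκBα–green luciferase fusion and unfused red luciferase, in 0.5% FBS medium; compounds up to 46 uM, 4 h at 37C. Green/red luminescence ratio, filter-overlap corrected, fitted to concentration-response curves.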
For orientation: qHTS replaces the single test concentration by a dilution series.

The mark [1] stands for this setting: measured here: CBR red luminescence, cell number.
Setting [2] is: measured here: IkBa-CBG green luminescence.

As for `COc1cc(/C=N/Nc2ccc(C(=O)O)cc2)ccc1O`, the AC50 under setting [1] is 0.1 µM [falling, full curve, poor fit] and the AC50 under setting [2] was 0.891 µM [rising, full curve, poor fit].

As for `N#Cc1cnn2c(C(F)(F)F)cc(-c3ccccc3)nc12`, the half-maximal activity concentration (AC50) under setting [1] is 1.26 µM [rising, full curve, poor fit]. On to `CCCc1[nH]nc2c1C(C1CCCCC1)C(C#N)=C(N)O2` (stereo not given), for which the AC50 under setting [1] is 23.1 µM [falling, single point]. On the same count and under the same terms, the same measure for `Nn1c(SCC(=O)NCCC2=CCCCC2)nnc1C(F)(F)F`: 4.11 µM [rising, full curve, poor fit]. With `COc1cc(OC)c(-c2c3cc(O)c(=O)cc-3oc3cc(O)c(O)cc23)cc1OC`, the AC50 runs as follows: under setting [1], 16.4 µM [rising, partial curve]; under setting [2], 10.3 µM [rising, partial curve, poor fit].

With `COc1ccc(CNC(=O)C(C)n2ccc3cc(S(=O)(=O)N4CCCCCC4)ccc32)cc1` (stereo not given), under setting [1], the AC50 was 25.1 µM [falling, partial curve, poor fit]. Regarding `COC(=O)c1ccc(Oc2cc(C)nc(-n3nc(C)cc3C)n2)cc1`, the AC50 under setting [1] is 7.08 µM [rising, full curve] and the AC50 under setting [2] is 8.91 µM [falling, partial curve]. Turning to `COc1ccc2nc(-n3c(C)ccc3C)sc2c1`, the AC50 under setting [1] was 29.1 µM [falling, single point]. For the molecule `CSCCC(N=C(NS(=O)(=O)c1ccc(C)cc1)c1ccccc1)C(=O)O` (stereo not given), under setting [1], the AC50 is 28.2 µM [rising, single point].

Turning to `O=C(O)C1CCCCC1C(=O)NCCc1ccncc1` (stereo not given), the half-maximal activity concentration (AC50) under setting [1] is 0.116 µM [falling, full curve, poor fit]. Take `CC1(NC(=O)Nc2cc([N+](=O)[O-])ccc2O)CCS(=O)(=O)C1` (stereo not given): under setting [1], the half-maximal activity concentration (AC50) was 20.6 µM [rising, single point].

With `Nc1cccc(-c2cc3ccccc3oc2=O)c1`, the concentration at half-maximal activity (AC50) under setting [1] is 20 µM [falling, partial curve, poor fit]. As to `C/C(=N\OCC(=O)Nc1ccc(OC(F)(F)F)cc1)c1ccc2c(c1)OCCO2`, the AC50 under setting [1] is 6.51 µM [rising, single point]. In the case of `CC(=O)c1c(C)[nH]c(C(=O)Nc2ccc(C)c(C)c2)c1C`, the AC50 under setting [1] is 0.651 µM [rising, partial curve, poor fit]. Still for that read-out and setting: the same measure for `N/C(Cc1ccc(Cl)cc1Cl)=N\OC(=O)c1cccs1`: 11.6 µM [rising, partial curve, poor fit].

In the case of `Cc1ccc(-n2nnnc2SCC(=O)Nc2ccc3c(c2)OCCO3)cc1C`, the AC50 under setting [1] was 13 µM [rising, partial curve, poor fit]. The same measure, in the same setting: the same measure for `COc1ccc(/C=N/NC(=O)c2ccc3nc[nH]c3c2)cc1`: 3.98 µM [falling, partial curve, poor fit]; for `CC1C(=O)NN=C1C(=O)N/N=C\c1ccc(O)cc1O` (stereo not given): 2.06 µM [falling, full curve]. With `Cc1c(CCC(=O)N2CCC(C(=O)O)CC2)c(=O)oc2cc3oc4c(c3cc12)CCCC4`, the AC50 runs as follows: under setting [1], 6.31 µM [rising, full curve]; under setting [2], 8.91 µM [falling, partial curve]. Consider `COc1ccc(CNC(=O)CCCc2cn(C)c3ccccc23)c(OC)c1`, for which the AC50 under setting [1] was 35.5 µM [falling, single point].

As for `O=C(O)CCc1ccc(-c2cccs2)n1NC(=O)c1ccc(O)cc1`, the half-maximal activity concentration (AC50) under setting [1] is 18.4 µM [falling, partial curve, poor fit]. On to `Cc1cc(=O)[nH]c(N/N=C/c2cn(CCC#N)nc2-c2ccccc2)n1`, for which the AC50 under setting [1] was 1.78 µM [falling, full curve, poor fit].

Take `O=C(Nc1cccc(C(F)(F)F)c1)c1cc(Br)cc2c1OCC2`: under setting [1], the concentration at half-maximal activity (AC50) is 10 µM [rising, partial curve]. For `COc1ccc(CC2(CO)CCN(Cc3cccc4nccnc34)CC2)cc1`, the AC50 runs as follows: under setting [1], 22.4 µM [falling, partial curve, poor fit]; under setting [2], 14.1 µM [falling, partial curve, poor fit]. With `COc1cccc(NC(=O)c2ccc(S(=O)(=O)N3CCCCC3)cc2)c1`, the concentration at half-maximal activity (AC50) under setting [1] is 7.31 µM [falling, partial curve]. Same read-out and setting: the same measure for `COc1ccc2cc(C(=O)Nc3ccccc3)sc(=O)c2c1OC`: 1.03 µM [rising, full curve]; for `CCOC(=O)C1=C(N)OC2=C(C(=O)CC(C)(C)C2)C1c1ccccc1OCC#N` (stereo not given): 6.51 µM [falling, single point]. Regarding `COc1ccc(NC(=O)CSc2nncc3ccccc23)cc1`, the AC50 under setting [1] is 11.2 µM [falling, partial curve]. For the molecule `Cn1nnnc1N=N/C(=N/Nc1ccccc1)c1ccccc1`, the half-maximal activity concentration (AC50) runs as follows: under setting [1], 2.82 µM [rising, partial curve]; under setting [2], 5.62 µM [falling, partial curve]. With `CC1(c2ccc3c(c2)OCCO3)NC(=O)N(CC(=O)Nc2ccccc2F)C1=O` (stereo not given), the concentration at half-maximal activity (AC50) under setting [1] was 0.103 µM [rising, full curve, poor fit]. Same read-out and setting: the same measure for `COc1ccc(OC(=O)COc2cc(C)ccc2C)cc1`: 10 µM [rising, partial curve]; for `COc1ccc(CC(=O)Nc2nc(-c3ccccc3)c(C(C)=O)s2)cc1OC`: 3.98 µM [falling, partial curve, poor fit]. Consider `S=C(NCCc1ccccc1)N/N=C/C1CCCCC1`, for which, under setting [1], the AC50 is 17.8 µM [rising, single point].

On to `COCc1nc2c([nH]1)c(=O)n(C)c(=O)n2CC(C)C`, for which the AC50 under setting [1] was 0.411 µM [falling, full curve]. In the case of `O=C(c1cccs1)n1nc(-c2cccnc2)nc1NCc1ccco1`, the AC50 under setting [1] was 35.5 µM [falling, single point].

Turning to `CCCC[n+]1ccn(-c2nc3ccccc3nc2[N-]S(=O)(=O)c2ccc(Br)cc2)c1`, the AC50 under setting [1] was 35.5 µM [rising, single point]. Consider `O=S(=O)(Nc1cccc(-c2nnco2)c1)c1ccc(F)cc1F`, for which the AC50 under setting [1] is 35.5 µM [falling, single point]. On the same count and under the same terms, the same measure for `CCOC(=O)c1sc(NC(=O)CSc2ncccn2)nc1C`: 1.26 µM [falling, full curve]; for `O=C(Nc1cccc(F)c1)N1CCN(C(=O)c2ccco2)CC1`: 8.91 µM [rising, single point]; for `CCOc1ccc(CCNc2nc3c(c(=O)n(C)c(=O)n3C)n2CC)cc1OCC`: 29.1 µM [falling, single point]. With `Oc1ccc(/C=N/Nc2nccnc2Cl)c(O)c1`, the AC50 under setting [1] was 3.66 µM [falling, full curve].

For the molecule `COC(=O)c1cc(C(=O)OC)cc(N2C(=O)CC(NNC(=O)c3ccccc3Br)C2=O)c1` (stereo not given), the AC50 under setting [1] was 8.91 µM [falling, partial curve]. The same measure, in the same setting: the same measure for `COc1ccc(NCc2cc3ccccc3[nH]c2=O)cc1`: 35.5 µM [falling, single point]. Still for that read-out and setting: the same measure for `CCCN(Cc1nnc(-c2ccccc2Cl)o1)C(=O)c1oc2ccccc2c1C`: 29.1 µM [falling, single point]; for `Cc1csc(NC(=O)Cc2coc3cc(C)c(C(C)C)cc23)n1`: 29.1 µM [falling, single point]; for `Cc1cc(O)cc2c1C(=O)/C(=C/c1ccco1)O2`: 35.5 µM [falling, single point]. For `CC(C)N(Cc1cc2ccccc2[nH]c1=O)C(=O)c1ccco1`, under setting [1], the AC50 was 12.6 µM [falling, partial curve].

In the case of `CCCOC(=O)c1ccc(NC(=O)C2CCCO2)cc1` (stereo not given), the AC50 under setting [1] is 1.64 µM [rising, partial curve]. For `CCOC(=O)c1ccccc1N1C(=O)CSC1=S`, the concentration at half-maximal activity (AC50) under setting [2] was 29.1 µM [falling, single point].

Turning to `Cn1c(=O)c2c(ncn2Cc2cccc(Cl)c2)n(C)c1=O`, under setting [1], the concentration at half-maximal activity (AC50) is 2.51 µM [falling, partial curve, poor fit]. For the molecule `O=C(Nc1ccc(N2CCOCC2)c(C(=O)O)c1)c1ccco1`, the AC50 under setting [1] was 29.1 µM [falling, partial curve, poor fit]. On the same count and under the same terms, the same measure for `Cc1ccc2c(CSc3nncs3)cc(=O)oc2c1`: 35.5 µM [rising, single point]. For `CCCn1c(SCC(=O)Nc2c(C)cccc2CC)nnc1C(C)C`, under setting [1], the half-maximal activity concentration (AC50) is 7.31 µM [falling, single point]. The same measure, in the same setting: the same measure for `CC(=O)n1cc([C@H]2C=C(C(=O)Nc3ccccc3)O[C@@H](OCc3ccc(CO)cc3)C2)c2ccccc21`: 11.2 µM [falling, single point]; for `O=C1NCC(O)=C1C=NC12CC3CC(CC(C3)C1)C2`: 3.66 µM [rising, partial curve, poor fit]. Still for that read-out and setting: the same measure for `Cc1nc(N2CCOCC2)c(C#N)c2c1COC(C)(C)C2`: 2.06 µM [rising, partial curve, poor fit]. Same read-out and setting: the same measure for `Cc1cc(C)c(C#N)c(N2CCN(c3ccc(F)cc3)CC2)n1`: 0.891 µM [rising, full curve, poor fit]; for `Cc1ccc2nc(-c3cccnc3)oc2c1`: 6.31 µM [rising, single point].

For `COc1ccc(C[C@H](N)C(=O)N[C@H]2[C@@H](O)[C@H](n3cnc4c(N(C)C)ncnc43)O[C@@H]2CO)cc1`, under setting [1], the AC50 is 25.9 µM [falling, single point].

As to `O=C(NC(=S)Nc1ccccc1N1CCCC1)c1cccc(F)c1`, under setting [1], the half-maximal activity concentration (AC50) was 20 µM [falling, single point]. On the same count and under the same terms, the same measure for `O=C(c1ncn[nH]1)N1CCN(c2nc(-c3ccccc3)cs2)CC1`: 0.501 µM [rising, full curve, poor fit]; for `O=C(O)COc1ccc(/C=C/C(=O)c2ccc3ccccc3c2)cc1`: 20 µM [falling, single point].

With `COC(=O)c1sccc1NC(=O)CSc1ccccc1NS(=O)(=O)c1cc(Cl)ccc1Cl`, the AC50 under setting [1] is 23.1 µM [falling, partial curve]. Same read-out and setting: the same measure for `Cc1c(N=Cc2nc3ccccc3n2C)c(=O)n(-c2ccccc2)n1C`: 0.501 µM [rising, full curve].
